Assay results reported in patent publication US8410145B2, “Insecticidal compounds” (Syngenta Crop Protection LLC, priority 2007, dated 2013).
Some entries share one result that the patent states for a list of compounds.

Tests used:
Type in all cases: in vivo
[1] = system: Spodoptera littoralis (Egyptian Cotton Leafworm); assay: Spodoptera littoralis cotton leaf disc spray test; settings: 200 ppm spray on cotton leaf discs, L1 larvae; mortality, feeding behavior, growth regulation 3 DAT
Text: (§1) Cotton leaf discs were placed on agar in a 24-well microtiter plate and sprayed with test solutions at an application rate of 200 ppm. After drying, the leaf discs were infested with 5 to L1 larvae. The samples were checked for mortality, feeding behavior, and growth regulation 3 days after treatment (DAT). The following compounds gave at least 80% control of Spodoptera littoralis: A1, A2, A3, A4, A6, A9, A10, A11, A12, A13, A14, A15, A16, A19, A20, A22, A23, A25, A26, A27, B1, B2, B3, B5, B6, B7, B8, B9, B11, B12, B13, B15, B16, B18, B19, B20, B21, B22, B24, B26, B27, B28, C1, C2, C3, C4, C5, C6, C7, C8, C9, C10, C12, C13, C16, C19, C20, C21, C22, C23, D1, D2, D3, D4, D5, D6, D7, D8, D9, D10, D11, D12, D13, D14, D15, D16, D17, D18, D19, D20, D21, D22, D23, D24. Heliothis virescens (Tobacco Budworm): Eggs (0-24 h old) were placed in 24-well microtiter plate on artificial diet and treated with test solutions at an application rate of 200 ppm (concentration in well 18 ppm) by pipetting. After an incubation period of 4 days, samples were checked for egg mortality, larval mortality, and growth regulation. The following compounds gave at least 80% control of Heliothis virescens: A1, A2, A3, A4, A13, A15, A17, A19, A20, A22, A23, A25, A26, A28, B1, B2, B3, B5, B6, B7, B9, B11, B13, B15, B18, B19, B20, B21, B25, B26, B27, B28, C1, C2, C3, C4, C5, C6, C7, C8, C9, C10, C12, C14, C16, C17, C19, C20, C21, C22, D1, D2, D3, D4, D5, D6, D7, D8, D9, D10, D11, D12, D13, D14, D15, D16, D17, D18, D19, D20, D21, D22, D23, E1, E2, E3, E4, E5. Plutella xylostella (Diamond Back Moth): 24-well microtiter plate (MTP) with artificial diet was treated with test solutions at an application rate of 200 ppm (concentration in well 18 ppm) by pipetting. After drying, the MTP's were infested with L2 larvae (7-12 per well). After an incubation period of 6 days, samples were checked for larval mortality and growth regulation. The following compounds gave at least 80% control of Plutella xylostella: A1, A3, A4, A10, All, A15, A19, A23, A25, B1, B2, B3, B5, B6, B7, B8, B9, B11, B13, B15, B18, B19, B20, B21, B26, B27, B28, C1, C2, C3, C4, C6, C7, C8, C9, C12, C16, C19, C20, C22, D1, D2, D3, D4, D5, D6, D7, D8, D9, D10, D12, D13, D14, D15, D16, D17, D18, D19, D20, D21, D22, D23, E1, E3, E5. Diabrotica balteata (Corn Root Worm): A 24-well microtiter plate (MTP) with artificial diet was treated with test solutions at an application rate of 200 ppm (concentration in well 18 ppm) by pipetting. After drying, the MTP's were infested with L2 larvae (6-10 per well). After an incubation period of 5 days, samples were checked for larval mortality and growth regulation. The following compounds gave at least 80% control of Diabrotica balteata: A2, A3, A4, A9, A11, A12, A13, A14, A15, A17, A19, A21, A22, A23, A24, A25, A26, B1, B2, B3, B6, B7, B8, B11, B13, B14, B15, B18, B19, B20, B21, B22, B26, B28, C1, C2, C3, C4, C5, C6, C7, C8, C9, C10, C12, C14, C15, C16, C19, C20, C21, C22, C23, C26, D1, D2, D4, D5, D6, D7, D8, D9, D10, D12, D14, D15, D16, D17, D18, D19, D20, D21, D22, D23, E2, E3, E5. Thrips tabaci (Onion Thrips): Sunflower leaf discs were placed on agar in a 24-well microtiter plate and sprayed with test solutions at an application rate of 200 ppm. After drying, the leaf discs were infested with an […] population of mixed ages. After an incubation period of 7 days, samples were checked for mortality. The following compounds gave at least 80% control of Thrips tabaci: B1, B7, B11, B15, B18, B19, B28, D1, D2, D3, D4, D5, D6, D7, D8, D9, D10, D12, D16, D18, D19, D20, D21, D23. Tetranychus urticae (Two-Spotted Spider Mite): Bean leaf discs on agar in 24-well microtiter plates were sprayed with test solutions at an application rate of 200 ppm. After drying, the leaf discs are infested with mite populations of mixed ages. 8 days later, discs are checked for egg mortality, larval mortality, and adult mortality. […]

[2] = system: Heliothis virescens (Tobacco Budworm); assay: Heliothis virescens egg test on artificial diet; settings: 200 ppm (concentration in well 18 ppm), eggs 0-24 h old on artificial diet; egg mortality, larval mortality, growth regulation after 4 days
Text: as §1

[3] = system: Plutella xylostella (Diamond Back Moth); assay: Plutella xylostella larvae test on artificial diet; settings: 200 ppm (concentration in well 18 ppm), L2 larvae, larval mortality and growth regulation after 6 days
Text: as §1

[4] = system: Diabrotica balteata (Corn Root Worm); assay: Diabrotica balteata larvae test on artificial diet; settings: 200 ppm (concentration in well 18 ppm), L2 larvae, larval mortality and growth regulation after 5 days
Text: as §1

[5] = system: Tetranychus urticae (Two-Spotted Spider Mite); assay: Tetranychus urticae bean leaf disc spray test; settings: 200 ppm spray on bean leaf discs, mite populations of mixed ages; egg, larval and adult mortality 8 days later
Text: as §1

[6] = system: Thrips tabaci (Onion Thrips); assay: Thrips tabaci sunflower leaf disc spray test; settings: 200 ppm spray on sunflower leaf discs, population of mixed ages; mortality after 7 days
Text: as §1

O=C(Nc1cccc(C2=NOC(c3cc(Cl)cc(Cl)c3)(C(F)(F)F)C2)c1)c1ccc(F)cc1Cl (racemic) [A23]
at least 80%: control of Spodoptera littoralis [1] | control of Heliothis virescens [2] | control of Plutella xylostella [3] | control of Diabrotica balteata [4]

Cc1cc(F)ccc1C(=O)Nc1cccc(C2=NOC(c3cc(Cl)cc(Cl)c3)(C(F)(F)F)C2)c1F (racemic) [B7]
at least 80%: control of Spodoptera littoralis [1] | control of Heliothis virescens [2] | control of Plutella xylostella [3] | control of Tetranychus urticae [5] | control of Diabrotica balteata [4] | control of Thrips tabaci [6]

O=C(Nc1cccc(C2=NOC(c3cc(Cl)cc(Cl)c3)(C(F)(F)F)C2)c1F)c1ccc(C(F)(F)F)cc1 (racemic) [B13]
at least 80%: control of Spodoptera littoralis [1] | control of Heliothis virescens [2] | control of Plutella xylostella [3] | control of Diabrotica balteata [4]

O=C(Nc1cccc(C2=NOC(c3cc(Cl)cc(Cl)c3)(C(F)(F)F)C2)c1F)c1ccccc1C(F)(F)F (racemic) [B18]
at least 80%: control of Spodoptera littoralis [1] | control of Heliothis virescens [2] | control of Plutella xylostella [3] | control of Diabrotica balteata [4] | control of Thrips tabaci [6]

O=C(Nc1cccc(C2=NOC(c3cc(Cl)cc(Cl)c3)(C(F)(F)F)C2)c1F)c1ccc(F)cc1Cl (racemic) [B19]
at least 80%: control of Spodoptera littoralis [1] | control of Heliothis virescens [2] | control of Plutella xylostella [3] | control of Diabrotica balteata [4] | control of Thrips tabaci [6]

Cc1nnsc1C(=O)Nc1cccc(C2=NOC(c3cc(Cl)cc(Cl)c3)(C(F)(F)F)C2)c1F (racemic) [B20]
at least 80%: control of Spodoptera littoralis [1] | control of Heliothis virescens [2] | control of Plutella xylostella [3] | control of Diabrotica balteata [4]

Cc1c(C(=O)Nc2cc(C3=NOC(c4cc(Cl)cc(Cl)c4)(C(F)(F)F)C3)ccc2F)cccc1[N+](=O)[O-] (racemic) [C2]
at least 80%: control of Spodoptera littoralis [1] | control of Heliothis virescens [2] | control of Plutella xylostella [3] | control of Diabrotica balteata [4]

O=C(Nc1cc(C2=NOC(c3cc(Cl)cc(Cl)c3)(C(F)(F)F)C2)ccc1F)c1ccc(F)cc1Cl (racemic) [C3]
at least 80%: control of Spodoptera littoralis [1] | control of Heliothis virescens [2] | control of Plutella xylostella [3] | control of Diabrotica balteata [4]

Cc1cc(C#N)ccc1C(=O)Nc1cc(C2=NOC(c3cc(Cl)cc(Cl)c3)(C(F)(F)F)C2)ccc1F (racemic) [C4]
at least 80%: control of Spodoptera littoralis [1] | control of Heliothis virescens [2] | control of Plutella xylostella [3] | control of Tetranychus urticae [5] | control of Diabrotica balteata [4]

O=C(Nc1cc(C2=NOC(c3cc(Cl)cc(Cl)c3)(C(F)(F)F)C2)ccc1F)c1ccc([N+](=O)[O-])cc1Cl (racemic) [C12]
at least 80%: control of Spodoptera littoralis [1] | control of Heliothis virescens [2] | control of Plutella xylostella [3] | control of Tetranychus urticae [5] | control of Diabrotica balteata [4]

O=C(Nc1cc(C2=NOC(c3cc(Cl)cc(Cl)c3)(C(F)(F)F)C2)ccc1F)c1ccc(C(F)(F)F)cc1 (racemic) [C16]
at least 80%: control of Spodoptera littoralis [1] | control of Heliothis virescens [2] | control of Plutella xylostella [3] | control of Diabrotica balteata [4]

Cc1nnsc1C(=O)Nc1cc(C2=NOC(c3cc(Cl)cc(Cl)c3)(C(F)(F)F)C2)ccc1F (racemic) [C22]
at least 80%: control of Spodoptera littoralis [1] | control of Heliothis virescens [2] | control of Plutella xylostella [3] | control of Diabrotica balteata [4]

N#Cc1ccc(C(=O)Nc2cc(C3=NOC(c4cc(Cl)cc(Cl)c4)(C(F)(F)F)C3)ccc2C#N)c(Cl)c1 (racemic) [D3]
at least 80%: control of Spodoptera littoralis [1] | control of Heliothis virescens [2] | control of Plutella xylostella [3] | control of Tetranychus urticae [5] | control of Thrips tabaci [6]

N#Cc1ccc(C2=NOC(c3cc(Cl)cc(Cl)c3)(C(F)(F)F)C2)cc1NC(=O)c1ccc(OC(F)(F)F)cc1 (centres unmarked) [D14]
at least 80%: control of Spodoptera littoralis [1] | control of Heliothis virescens [2] | control of Plutella xylostella [3] | control of Diabrotica balteata [4]

N#Cc1ccc(C2=NOC(c3cc(Cl)cc(Cl)c3)(C(F)(F)F)C2)cc1NC(=O)c1ccc(F)c(C(F)(F)F)c1 (centres unmarked) [D15]
at least 80%: control of Spodoptera littoralis [1] | control of Heliothis virescens [2] | control of Plutella xylostella [3] | control of Diabrotica balteata [4]

N#Cc1ccc(C2=NOC(c3cc(Cl)cc(Cl)c3)(C(F)(F)F)C2)cc1NC(=O)c1ccccc1OC(F)(F)F (centres unmarked) [D17]
at least 80%: control of Spodoptera littoralis [1] | control of Heliothis virescens [2] | control of Plutella xylostella [3] | control of Tetranychus urticae [5] | control of Diabrotica balteata [4]

N#Cc1ccc(C2=NOC(c3cc(Cl)cc(Cl)c3)(C(F)(F)F)C2)cc1NC(=O)c1ccccc1C(F)(F)F (centres unmarked) [D19]
at least 80%: control of Spodoptera littoralis [1] | control of Heliothis virescens [2] | control of Plutella xylostella [3] | control of Diabrotica balteata [4] | control of Thrips tabaci [6]
